Reference: patent publication US8492400B2, “Stable formulations, and methods of their preparation and use” (Santen Pharmaceutical Co., Ltd., priority 2006, dated 2013)
Like-named read-outs stand apart in the source and are kept apart here. At least one compound was matched to its structure with a doubt left.

What was measured:
[1] = Oxygen levels and formulation stability: percent formula strength of rapamycin formulation blanketed with nitrogen, air or oxygen; assay type: physicochemical; conditions: 25 C., 2% rapamycin, 4% ethanol, 94% PEG400 formulation of Example 11
CNV [2] = conditions: rat model; U.S. application Ser. No. 10/665,203; cited from earlier work
CNV [3] = conditions: mice model; U.S. application Ser. No. 10/665,203; cited from earlier work
[4] = tested on: Matrigel™ and laser-induced CNV; conditions: administered systemically and subretinally; cited from earlier work

Compound: CO[C@H]1C[C@@H]2CC[C@@H](C)[C@@](O)(O2)C(=O)C(=O)N2CCCC[C@H]2C(=O)O[C@H]([C@H](C)C[C@@H]2CC[C@@H](O)[C@H](OC)C2)CC(=O)[C@H](C)/C=C(\C)[C@@H](O)[C@@H](OC)C(=O)[C@H](C)C[C@H](C)/C=C/C=C/C=C/1C [rapamycin]
- % FS ([1]; 0 weeks, 0.80% oxygen in headspace, 0.55 μL O2/mg of rapamycin (nitrogen blanket)): 99.00%
- % FS ([1]; 0 weeks, 20.40% oxygen in headspace, 13.91 μL O2/mg of rapamycin (air blanket)): 99.00%
- % FS ([1]; 0 weeks, 84.72% oxygen in headspace, 57.76 μL O2/mg of rapamycin (oxygen blanket)): 99.00%
- % FS ([1]; 1 week, 0.80% oxygen in headspace, 0.55 μL O2/mg of rapamycin (nitrogen blanket)): 99.00%
- % FS ([1]; 1 week, 20.40% oxygen in headspace, 13.91 μL O2/mg of rapamycin (air blanket)): 97.00%
- % FS ([1]; 1 week, 84.72% oxygen in headspace, 57.76 μL O2/mg of rapamycin (oxygen blanket)): 95.00%
- % FS ([1]; 2 weeks, 20.40% oxygen in headspace, 13.91 μL O2/mg of rapamycin (air blanket)): 93.00%
- % FS ([1]; 2 weeks, 84.72% oxygen in headspace, 57.76 μL O2/mg of rapamycin (oxygen blanket)): 83.00%
- % FS ([1]; 4 weeks, 0.80% oxygen in headspace, 0.55 μL O2/mg of rapamycin (nitrogen blanket)): 96.00%
- % FS ([1]; 4 weeks, 20.40% oxygen in headspace, 13.91 μL O2/mg of rapamycin (air blanket)): 86.00%
- % FS ([1]; 4 weeks, 84.72% oxygen in headspace, 57.76 μL O2/mg of rapamycin (oxygen blanket)): 59.00%
- % FS ([1]; 8 weeks, 0.80% oxygen in headspace, 0.55 μL O2/mg of rapamycin (nitrogen blanket)): 94.00%
- % FS ([1]; 8 weeks, 20.40% oxygen in headspace, 13.91 μL O2/mg of rapamycin (air blanket)): 82.00%
- Inhibition of CNV (CNV [2]): inhibit CNV
- Inhibition of CNV (CNV [3]): inhibit CNV
- Inhibition of Matrigel™ and laser-induced CNV [4]: inhibit Matrigel™ and laser-induced CNV
